# Measured values: US11505811B2, “Method for the preparation of 2,4-dihydroxybutyrate” (ADISSEO FRANCE S.A.S., priority 2012, dated 2022)
# At least one compound was matched to its structure with a doubt left.
# Tests used:
# [1] = tested on: Lactococcus lactis lactate dehydrogenase mutated in position Q85 (mutated enzymes, collectively); test: OHB/pyruvate reductase assay, L. lactis lactate dehydrogenase mutated in position Q85 (FIG. 2); type: biochemical
# [2] = target: T1, Lactococcus lactis (L)-lactate dehydrogenase A Ll-LdhA variant Q85N I226V (Q85NI226V), SEQ ID No. 32 (Lactococcus lactis, UniProt Q01462, I226V/Q85N); test: OHB/pyruvate reductase assay, Ll-LdhA Q85N I226V; type: biochemical; details: Q85N combined with I226V
# T1 sequence (Q01462 1-325 Q85N/I226V): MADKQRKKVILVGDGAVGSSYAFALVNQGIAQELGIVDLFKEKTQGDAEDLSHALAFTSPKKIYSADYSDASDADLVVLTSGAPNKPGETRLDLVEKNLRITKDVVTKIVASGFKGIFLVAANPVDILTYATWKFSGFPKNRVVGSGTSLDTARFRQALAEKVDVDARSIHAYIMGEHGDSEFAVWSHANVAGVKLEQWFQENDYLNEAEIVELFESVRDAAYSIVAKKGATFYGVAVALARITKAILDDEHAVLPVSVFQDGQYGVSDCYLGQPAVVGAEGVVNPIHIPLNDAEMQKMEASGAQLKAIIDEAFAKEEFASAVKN
# Method: Enzymatic assays: The reaction mixture contained 60 mM Hepes (pH 7), 50 mM potassium chloride, 5 mM MgCl2, 0.25 mM NADH, (optionally 5 mM fructose-1,6-bisphosphate) (all products from Sigma), and appropriate amounts of purified malate or lactate dehydrogenase or cell extract. Reactions were started by adding appropriate amounts of 2-oxo-4-hydroxybutyrate (OHB), pyruvate, or oxaloacetate (OAA). Enzymatic assays were carried out at 37° C. in 96-well flat bottomed microtiter plates in a final volume of 250 μL. The reactions were followed by the characteristic absorption of NADH at 340 nm (εNADH=6.22 mM^−1 cm^−1) in a microplate reader (BioRad 680XR).
# Site-directed mutagenesis of the L. lactis ldhA gene was carried out using the pET28-Ll-ldhA plasmid as the template. Point mutations to change the amino acid sequence were introduced by PCR (Phusion 1U, HF buffer 20% (v/v), dNTPs 0.2 mM, direct and reverse primers 0.04 μM each, template plasmid 30-50 ng, water) using the oligonucleotide pairs listed in Table 3. The genes mutated by PCR contained a new restriction site listed in Table 3 (introduced using silent mutations) in addition to the functional mutation to facilitate identification of mutated clones. The PCR products were digested by DpnI at 37° C. for 1 h to remove template DNA, and transformed into competent E. coli DH5α (NEB) cells. […]
SMILES,saturation of enzymatic activity (OHB) ([1]; between 0 and 50 mM OHB),substrate affinity for OHB (effect of adding I226V to Q85N) [2],saturation of enzymatic activity (pyruvate) ([1]; between 0 and 50 mM pyruvate)
"O=C(O)C(=O)CCO [OHB, 2-oxo-4-hydroxybutyrate]",no saturation,major positive impact,–
"CC(=O)C(=O)O [pyruvate, reference compound]",–,–,no saturation
